PubChem BioAssay AID1259308 | NCATS | 2017
Shown is an unselected part of about 59,000 reagents tested. Of all reagents, about 1,510 (2.6%) were called active. 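Calls use total luciferase alone and ignore viability, so some active siRNAs may act by altering cell number.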 Unmarked entries are inactive. The numbers tell different reagents against one gene apart. Further read-outs or replicates are left out here.

Purpose: 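Genes whose loss raises luciferase production in HEK293 cells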 (primary screen)
System: human HEK293 embryonic kidney cells stably expressing firefly luciferase (HEK-CMV-Luc2-Hygro)
Knock-down reagent: single siRNA against human genes, 0.8 pmol siRNA per well
Time to read-out: 72 h
Read-out: 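Reporter luminescence and viable-cell signal on separate replicate plates, given as percent of non-targeting control and median/MAD z-scores, plus per-cell luciferase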
Reading the numbers: total luciferase, z-score and total luciferase, % of control: higher = more reporter protein produced; luciferase per cell, z-score: higher = more reporter output per viable cell
Call rule: 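Active when the median/MAD z-score for overall luciferase is greater than 3; a gene was taken forward for validation with new siRNAs if at least two of its three siRNAs passed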
Calls: active = raised luciferase; inactive = no rise

gene	reagent no.	total luciferase, z-score	total luciferase, % of control	luciferase per cell, z-score
SLC13A3	1	-0.546	71	-0.418
SLC13A3	2	0.662	95	0.214
SLC13A3	3	1.15	105	0.802
JPH3	1	-0.163	78.6	0.687
JPH3	2	1.46	111	2.39
JPH3	3	0.417	90.2	0.181
PSG5	1	-0.588	70.2	0.328
PSG5	2	-1.97	42.7	-1.18
PSG5	3	-0.823	65.5	-0.508
SLC29A4P1	1	-0.585	70.3	-0.957
SLC29A4P1	2	0.39	89.6	0.631
SLC29A4P1	3	-3.04	21.5	-4.05
KPNA5	1	-0.684	68.3	0.207
KPNA5	2	-1.03	61.3	-0.453
KPNA5	3	-0.468	72.6	-1.39
TRAP1	1	1.65	115	0.359
TRAP1	2	0.58	93.4	0.538
TRAP1	3	-0.797	66	-0.722
LOC728416	1	-0.476	72.4	-0.782
LOC728416	2	-0.191	78.1	-0.0175
LOC728416	3	-0.348	75	0.0899
PIK3C2B	1	1.45	111	1.19
PIK3C2B	2	0.912	100	0.541
PIK3C2B	3	0.335	88.5	-0.292
CERKL	1	1.29	108	1.04
CERKL	2	-0.12	79.5	-0.511
CERKL	3	1.16	105	0.0816
RPL19	1	-2.55	31.2	-1.26
RPL19	2	-2.83	25.5	-0.464
RPL19	3	-1.93	43.6	-1.37
OSR1	1	1.87	119	1.79
OSR1	2	-1.2	57.9	-1.56
OSR1	3	0.959	101	0.578
PPP1R3E	1	0.959	101	1.82
PPP1R3E	2	-1.13	59.4	-1.25
PPP1R3E	3	-1.15	59.1	-0.00134
ARPC3	1	-0.2	77.9	-0.173
ARPC3	2	0.0193	82.3	-0.673
ARPC3	3	-0.218	77.5	0.218
TFF2	1	0.208	86	0.162
TFF2	2	1.23	106	1.24
TFF2	3	1.75	117	1.6
TUT4	1	0.829	98.4	0.721
TUT4	2	-0.527	71.4	-0.874
TUT4	3	2.42	130	2.93
CPLX4	1	1.06	103	0.69
CPLX4	2	-1.49	52.3	-1.22
CPLX4	3	0.0165	82.2	2.98
IFRD2	1	1.12	104	0.976
IFRD2	2	-2.37	34.7	0.165
IFRD2	3	-1.04	61.3	-1.31
TPBGL	1	-0.189	78.1	0.148
TPBGL	2	1.06	103	0.591
TPBGL	3	-0.803	65.9	-0.91
LTB4R	1	1.12	104	1.54
LTB4R	2	-0.708	67.8	-1.19
LTB4R	3	-0.968	62.6	-1.11

Entries listed so far whose target name starts with P or p (9):
gene	reagent no.	total luciferase, z-score	total luciferase, % of control	luciferase per cell, z-score
PSG5	1	-0.588	70.2	0.328
PSG5	2	-1.97	42.7	-1.18
PSG5	3	-0.823	65.5	-0.508
PIK3C2B	1	1.45	111	1.19
PIK3C2B	2	0.912	100	0.541
PIK3C2B	3	0.335	88.5	-0.292
PPP1R3E	1	0.959	101	1.82
PPP1R3E	2	-1.13	59.4	-1.25
PPP1R3E	3	-1.15	59.1	-0.00134
